Source: paper PMC12373997
No constants are given. Whether binding was seen depends on the method and setting. Binding seen in cells or lysates may run through a third protein. These calls come from enrichment with a bait or labelling near it, and not all partners need be listed. Where a sequence is shown, tags or fusion partners need not be part of it.

Sequences of proteins named here, by UniProt entry; tags and fusion partners are left off.
UniProt Q99871: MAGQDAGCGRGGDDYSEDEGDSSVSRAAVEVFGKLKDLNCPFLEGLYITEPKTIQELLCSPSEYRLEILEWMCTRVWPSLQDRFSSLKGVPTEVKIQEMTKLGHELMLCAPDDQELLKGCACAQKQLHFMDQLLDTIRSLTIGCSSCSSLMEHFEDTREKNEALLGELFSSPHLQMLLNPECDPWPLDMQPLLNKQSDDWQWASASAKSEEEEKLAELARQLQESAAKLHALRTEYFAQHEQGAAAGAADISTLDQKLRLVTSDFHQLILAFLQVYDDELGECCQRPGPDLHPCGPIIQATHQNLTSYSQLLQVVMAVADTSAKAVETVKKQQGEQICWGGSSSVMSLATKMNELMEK

Target: T1, H. sapiens HAUS8-HIS8, N-clamp fragment (H. sapiens) (UniProt Q9BT25)
T1 sequence: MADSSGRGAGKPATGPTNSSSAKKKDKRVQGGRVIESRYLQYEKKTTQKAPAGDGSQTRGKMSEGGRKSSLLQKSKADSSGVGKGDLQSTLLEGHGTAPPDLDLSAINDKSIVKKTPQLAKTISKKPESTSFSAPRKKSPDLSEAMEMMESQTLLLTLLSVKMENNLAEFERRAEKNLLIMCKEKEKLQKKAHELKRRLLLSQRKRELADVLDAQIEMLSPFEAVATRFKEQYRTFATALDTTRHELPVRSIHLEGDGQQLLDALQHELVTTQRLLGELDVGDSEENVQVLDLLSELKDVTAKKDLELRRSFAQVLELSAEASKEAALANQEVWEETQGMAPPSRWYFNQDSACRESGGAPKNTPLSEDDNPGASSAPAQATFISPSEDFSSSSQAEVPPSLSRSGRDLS
Experiment: co-expression and co-purification (His-affinity, SEC, anion exchange), checked by mass spectrometry and negative stain EM; four subunits co-expressed in E. coli; Ni-NTA capture through HAUS7-EGFP-HIS8 and HAUS8-HIS8 from the lysate, Superose 6 SEC, Capto HiRes Q

Substance: H. sapiens HAUS7-EGFP-HIS8, N-clamp fragment (from UniProt Q99871 1-358) (domain or fragment)
- binding: binds
